From article PMC12713088
For some assays here: Negatives hold for the conditions tested. For some assays here: At least one verdict was read from the data and is not stated in words by the source. For some assays here: Where a protein sequence is shown, tags need not be part of it. For some assays here: Weaker means in comparison with the reference protein, sequence or condition of that experiment. For some assays here: Construct, isoform or probe ends are uncertain for at least one entry.

By UniProt entry, the sequences of proteins in these tests, tags left out. Where a name states a change or a piece, a line headed by the entry shows the natural chain unless it says otherwise.
UniProt Q8GUI6: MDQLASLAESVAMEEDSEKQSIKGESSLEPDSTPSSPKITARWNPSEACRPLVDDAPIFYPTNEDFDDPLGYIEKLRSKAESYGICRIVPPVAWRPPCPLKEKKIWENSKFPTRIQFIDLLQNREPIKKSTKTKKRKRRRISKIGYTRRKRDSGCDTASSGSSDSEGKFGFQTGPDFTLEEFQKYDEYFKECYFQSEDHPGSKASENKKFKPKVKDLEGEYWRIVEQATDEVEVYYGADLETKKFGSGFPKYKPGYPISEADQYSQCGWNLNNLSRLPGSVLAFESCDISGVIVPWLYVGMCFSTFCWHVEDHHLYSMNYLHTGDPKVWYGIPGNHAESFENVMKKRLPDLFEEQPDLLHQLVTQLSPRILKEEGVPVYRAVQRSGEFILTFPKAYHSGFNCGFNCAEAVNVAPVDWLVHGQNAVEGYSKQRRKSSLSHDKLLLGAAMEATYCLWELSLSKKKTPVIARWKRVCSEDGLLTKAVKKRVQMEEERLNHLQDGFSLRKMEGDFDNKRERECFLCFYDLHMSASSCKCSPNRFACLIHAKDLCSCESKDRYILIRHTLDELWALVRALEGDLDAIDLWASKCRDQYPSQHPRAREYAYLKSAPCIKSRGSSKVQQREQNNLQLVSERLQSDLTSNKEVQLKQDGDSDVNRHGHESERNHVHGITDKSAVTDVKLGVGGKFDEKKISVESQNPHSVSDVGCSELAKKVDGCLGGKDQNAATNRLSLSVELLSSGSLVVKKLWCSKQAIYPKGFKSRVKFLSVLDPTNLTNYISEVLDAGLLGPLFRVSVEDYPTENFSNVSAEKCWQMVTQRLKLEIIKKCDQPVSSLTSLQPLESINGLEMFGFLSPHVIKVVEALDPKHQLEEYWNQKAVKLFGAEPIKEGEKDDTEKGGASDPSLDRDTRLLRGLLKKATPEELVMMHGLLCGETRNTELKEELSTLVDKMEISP

Tests used:
[1] = target: T1, HTH1 (Arabidopsis thaliana) (UniProt Q9SHL4); experiment: EMSA; settings: EMSA: 10 mM Tris-HCl pH 7.5, 50 mM NaCl, 1 mM EDTA, 5% glycerol, 1 mM DTT, 25 C, 30 min, 20 ng DNA + 1 ug protein; recombinant protein; residues 1-275; label: Cy5 at 5' of strand 1
T1 sequence (looked up): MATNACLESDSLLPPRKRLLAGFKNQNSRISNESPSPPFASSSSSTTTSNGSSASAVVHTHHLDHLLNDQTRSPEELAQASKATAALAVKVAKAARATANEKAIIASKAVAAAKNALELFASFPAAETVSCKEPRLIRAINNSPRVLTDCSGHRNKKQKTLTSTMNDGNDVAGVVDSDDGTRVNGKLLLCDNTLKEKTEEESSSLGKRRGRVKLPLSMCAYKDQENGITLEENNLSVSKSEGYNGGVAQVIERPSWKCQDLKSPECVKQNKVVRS

[2] = target: T2, HTH2/TRBIP1 (Arabidopsis thaliana) (UniProt O81784); experiment: EMSA; settings: EMSA: 10 mM Tris-HCl pH 7.5, 50 mM NaCl, 1 mM EDTA, 5% glycerol, 1 mM DTT, 25 C, 30 min, 20 ng DNA + 1 ug protein; recombinant protein; residues 1-333; label: Cy5 at 5' of strand 1
T2 sequence (looked up): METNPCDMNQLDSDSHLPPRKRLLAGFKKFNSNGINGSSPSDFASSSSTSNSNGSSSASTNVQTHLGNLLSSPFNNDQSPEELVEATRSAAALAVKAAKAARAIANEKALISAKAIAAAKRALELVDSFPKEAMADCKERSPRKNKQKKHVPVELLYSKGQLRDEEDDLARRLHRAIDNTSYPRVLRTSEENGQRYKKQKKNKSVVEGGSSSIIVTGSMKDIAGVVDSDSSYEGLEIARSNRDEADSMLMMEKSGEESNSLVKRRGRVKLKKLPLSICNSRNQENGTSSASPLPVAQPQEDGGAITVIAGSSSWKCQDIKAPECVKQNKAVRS

[3] = target: T3, HTH3 (Arabidopsis thaliana) (UniProt Q9FKY2); experiment: EMSA; settings: EMSA: 10 mM Tris-HCl pH 7.5, 50 mM NaCl, 1 mM EDTA, 5% glycerol, 1 mM DTT, 25 C, 30 min, 20 ng DNA + 1 ug protein; recombinant protein; residues 1-215; label: Cy5 at 5' of strand 1
T3 sequence (looked up): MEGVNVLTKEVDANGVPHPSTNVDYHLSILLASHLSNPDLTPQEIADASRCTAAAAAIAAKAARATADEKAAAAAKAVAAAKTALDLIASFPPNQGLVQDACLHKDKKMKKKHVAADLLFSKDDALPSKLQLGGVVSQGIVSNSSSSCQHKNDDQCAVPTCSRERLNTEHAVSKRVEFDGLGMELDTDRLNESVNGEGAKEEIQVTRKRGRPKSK

[4] = target: T4, ICU11 (Arabidopsis thaliana) (UniProt Q3ED68); experiment: EMSA; settings: EMSA: 10 mM Tris-HCl pH 7.5, 50 mM NaCl, 1 mM EDTA, 5% glycerol, 1 mM DTT, 25 C, 30 min, 20 ng DNA + 1 ug protein; recombinant protein; residues 1-397; label: Cy5 at 5' of strand 1
T4 sequence (looked up): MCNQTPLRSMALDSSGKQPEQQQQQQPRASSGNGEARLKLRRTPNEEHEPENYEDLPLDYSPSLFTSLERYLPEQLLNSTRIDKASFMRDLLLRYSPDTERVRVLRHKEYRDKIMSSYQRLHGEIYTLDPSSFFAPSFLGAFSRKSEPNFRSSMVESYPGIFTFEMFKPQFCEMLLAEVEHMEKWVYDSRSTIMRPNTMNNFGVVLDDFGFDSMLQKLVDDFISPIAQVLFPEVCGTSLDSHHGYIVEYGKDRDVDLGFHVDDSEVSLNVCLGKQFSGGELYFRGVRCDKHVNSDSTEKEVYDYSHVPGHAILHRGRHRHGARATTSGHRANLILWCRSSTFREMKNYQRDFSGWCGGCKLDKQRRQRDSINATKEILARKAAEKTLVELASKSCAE

[5] = target: JMJ14 (Arabidopsis thaliana) (UniProt Q8GUI6); experiment: EMSA; settings: EMSA: 10 mM Tris-HCl pH 7.5, 50 mM NaCl, 1 mM EDTA, 5% glycerol, 1 mM DTT, 25 C, 30 min, 20 ng DNA + 1 ug protein; recombinant protein; residues 1-954; protein details: FLAG; label: Cy5 at 5' of strand 1
[6] = target: T5, NAC050-N (Arabidopsis thaliana) (UniProt Q9SQX9); experiment: EMSA; settings: EMSA: 10 mM Tris-HCl pH 7.5, 50 mM NaCl, 1 mM EDTA, 5% glycerol, 1 mM DTT, 25 C, 30 min, 20 ng DNA + 1 ug protein; recombinant protein; protein details: MBP; label: Cy5 at 5' of strand 1
T5 sequence (looked up, limits assumed): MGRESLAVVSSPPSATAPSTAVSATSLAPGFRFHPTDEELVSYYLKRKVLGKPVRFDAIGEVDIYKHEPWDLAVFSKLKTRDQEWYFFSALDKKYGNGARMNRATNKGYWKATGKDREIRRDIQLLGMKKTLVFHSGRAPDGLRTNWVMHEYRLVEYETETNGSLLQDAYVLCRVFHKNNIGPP

[7] = tested on: TRB1-2 (Arabidopsis thaliana); experiment: EMSA; settings: EMSA: 10 mM Tris-HCl pH 7.5, 50 mM NaCl, 1 mM EDTA, 5% glycerol, 1 mM DTT, 25 C, 30 min, 20 ng DNA + 1 ug protein; recombinant protein; protein details: His; label: Cy5 at 5' of strand 1
[8] = target: TRB1-3 (Arabidopsis thaliana) (UniProt Q8VWK4); experiment: EMSA; settings: EMSA: 10 mM Tris-HCl pH 7.5, 50 mM NaCl, 1 mM EDTA, 5% glycerol, 1 mM DTT, 25 C, 30 min, 20 ng DNA + 1 ug protein; recombinant protein; protein details: His; label: Cy5 at 5' of strand 1
[9] = tested on: TRB1-4 (Arabidopsis thaliana); experiment: EMSA; settings: EMSA: 10 mM Tris-HCl pH 7.5, 50 mM NaCl, 1 mM EDTA, 5% glycerol, 1 mM DTT, 25 C, 30 min, 20 ng DNA + 1 ug protein; recombinant protein; protein details: His; label: Cy5 at 5' of strand 1
[10] = target: TRB1-5 (Arabidopsis thaliana) (UniProt Q8VWK4); experiment: EMSA; settings: EMSA: 10 mM Tris-HCl pH 7.5, 50 mM NaCl, 1 mM EDTA, 5% glycerol, 1 mM DTT, 25 C, 30 min, 20 ng DNA + 1 ug protein; recombinant protein; protein details: His; label: Cy5 at 5' of strand 1
[11] = target: TRB1-6 (Arabidopsis thaliana) (UniProt Q8VWK4); experiment: EMSA; settings: EMSA: 10 mM Tris-HCl pH 7.5, 50 mM NaCl, 1 mM EDTA, 5% glycerol, 1 mM DTT, 25 C, 30 min, 20 ng DNA + 1 ug protein; recombinant protein; protein details: His; label: Cy5 at 5' of strand 1
[12] = target: T6, TRB1-MybΔ del1-60 (Arabidopsis thaliana) (UniProt Q8VWK4); experiment: EMSA; settings: EMSA: 10 mM Tris-HCl pH 7.5, 50 mM NaCl, 1 mM EDTA, 5% glycerol, 1 mM DTT, 25 C, 30 min, 20 ng DNA + 1 ug protein; recombinant protein; residues 61-300; label: Cy5 at 5' of strand 1
T6 sequence (looked up): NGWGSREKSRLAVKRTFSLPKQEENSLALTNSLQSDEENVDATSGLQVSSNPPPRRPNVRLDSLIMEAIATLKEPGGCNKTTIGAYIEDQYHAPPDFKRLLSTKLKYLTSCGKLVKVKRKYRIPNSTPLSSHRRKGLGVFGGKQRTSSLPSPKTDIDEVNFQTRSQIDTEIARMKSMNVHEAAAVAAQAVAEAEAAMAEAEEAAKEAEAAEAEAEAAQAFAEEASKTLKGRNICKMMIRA

[13] = target: T7, ZDP2 (Arabidopsis thaliana) (UniProt Q9LRN9); experiment: EMSA; settings: EMSA: 10 mM Tris-HCl pH 7.5, 50 mM NaCl, 1 mM EDTA, 5% glycerol, 1 mM DTT, 25 C, 30 min, 20 ng DNA + 1 ug protein; recombinant protein; residues 1-198; label: Cy5 at 5' of strand 1
T7 sequence (looked up): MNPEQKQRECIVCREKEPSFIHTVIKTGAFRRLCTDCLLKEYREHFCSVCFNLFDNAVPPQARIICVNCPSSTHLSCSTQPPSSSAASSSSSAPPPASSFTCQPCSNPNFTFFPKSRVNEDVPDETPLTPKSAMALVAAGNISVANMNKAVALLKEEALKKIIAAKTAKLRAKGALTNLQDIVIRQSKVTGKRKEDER

[14] = target: T8, TRB1 (Arabidopsis thaliana) (UniProt Q8VWK4); experiment: ITC; settings: Kd only in figure; ITC: 20 mM Tris-HCl pH 7.5, 150 mM NaCl, 25 C, 5 uM protein, 100 uM DNA; recombinant protein; residues 1-300; protein details: His
T8 sequence (looked up): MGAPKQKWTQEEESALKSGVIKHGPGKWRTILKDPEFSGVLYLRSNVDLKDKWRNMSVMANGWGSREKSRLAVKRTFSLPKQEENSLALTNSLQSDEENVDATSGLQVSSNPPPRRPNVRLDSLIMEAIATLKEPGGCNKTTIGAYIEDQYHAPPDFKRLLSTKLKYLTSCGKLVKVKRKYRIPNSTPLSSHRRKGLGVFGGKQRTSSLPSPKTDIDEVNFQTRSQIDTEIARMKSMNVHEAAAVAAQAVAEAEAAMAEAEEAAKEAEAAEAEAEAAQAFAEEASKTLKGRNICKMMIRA

[15] = target: T8, TRB1 (Arabidopsis thaliana); experiment: EMSA; settings: EMSA: 10 mM Tris-HCl pH 7.5, 50 mM NaCl, 1 mM EDTA, 5% glycerol, 1 mM DTT, 25 C, 30 min, 20 ng DNA + 1 ug protein; recombinant protein; residues 1-300; protein details: His; label: Cy5 at 5' of strand 1

| Sequence | binding result [1] | binding result [2] | binding result [3] | binding result [4] | binding result [5] | binding result [6] | binding result [7] | binding result [8] | binding result [9] | binding result [10] | binding result [11] | binding result [12] | binding result [13] | binding result [14] | binding result [15] |
| --- | --- | --- | --- | --- | --- | --- | --- | --- | --- | --- | --- | --- | --- | --- | --- |
| ATCGAATTTAGGGCAAAATG (double strand) [Probe 1 (P1)] | binds | binds | binds | no binding | no binding | no binding | no binding | no binding | no binding | no binding | no binding | binds more weakly | no binding | – | – |
| ATCGAATTTAGGGCAAAATG (double strand) [Probe 1 for ITC] | – | – | – | – | – | – | – | – | – | – | – | – | – | binds | – |
| GACGCTTGAGCCTCAAGAAAT (double strand) [Probe 2 (P2)] | binds | binds | binds | no binding | no binding | – | – | – | – | – | – | – | no binding | – | no binding |
| TCCGATTGTCTTTTCGTTTT (double strand) [Probe 3 (P3)] | binds | binds | binds | no binding | no binding | no binding | – | – | – | – | – | – | no binding | – | no binding |
